These results are taken from patent publication US7323260B2, “Lubricant, recording medium and carboxylic acid compound” (Sony Corporation, priority 2003, dated 2008).

The nature of data set [1]: Friction coefficient of sample tape coated with the lubricant, after 1000 runs. Particulars: 1 mg/m^2 on carbon film layer.
Data set [2] in a line: Shuttle durability of sample tape: playback output change after 100 runs on AIT2 deck. Particulars: difference between initial output and playback output after 100 runs; for Shuttle durability (dB) (−5° C.): 20% RH.
The nature of data set [3]: Corrosion resistance: magnetic deterioration rate after storage in corrosive gas environment. Particulars: 5 hours, 35° C., 70% RH, 2 ppm H2S and 1 ppm HCl.
Data set [4] is described as follows: Corrosion resistance: magnetic deterioration rate after storage in high-temperature, high-humidity environment. Particulars: one week at 60° C. and 80% RH.

As for `CCCCCCCCCCCCCCCCCCN` [Comparative Example 1, C18H37NH2, reference compound], in data set [1], the “Friction coefficient (40° C., 80% RH)” value amounted to 0.30. Besides, in data set [2], the “Shuttle durability (dB) (40° C., 20% RH)” value is given as −7.0 dB and the “Shuttle durability (dB) (−5° C.)” value was −9.0 dB. The “Corrosive gas environment (magnetic deterioration rate)” value (“Corrosive gas environment” for short) in data set [3] (Tables 8 and 9) is on record as “Δ (magnetic deterioration rate is 5% or less)”.

For the molecule `O=C(O)CC(OC(=O)C(F)(F)C(F)(F)C(F)(F)C(F)(F)C(F)(F)C(F)(F)C(F)(F)C(F)F)C(=O)O` (stereo not shown) [Example 6, CHF2(CF2)7COOCH(COOH)CH2COOH], in data set [1], the “Friction coefficient (40° C., 80% RH)” value was found to be 0.25. Also, in data set [2], the “Shuttle durability (dB) (40° C., 20% RH)” value was −1.5 dB and the “Shuttle durability (dB) (−5° C.)” value is listed as −1.0 dB. In data set [4] (Tables 8 and 9), the “High-temperature, high-humidity environment (magnetic deterioration rate)” value (from here on “High-temperature … (magnetic deterioration rate)”) is on record as “⊙ (magnetic deterioration rate is 1% or less)”. In addition, in data set [3] (Tables 8 and 9), the “Corrosive gas environment” value was “⊙ (magnetic deterioration rate is 1% or less)”.

As to `CCCCCCC(CCC(CCCCCCCCOC(=O)CC(CC(=O)O)C(=O)O)CCC(F)(F)C(F)(F)C(F)(F)C(F)(F)C(F)(F)C(F)(F)C(F)(F)C(F)(F)C(F)(F)C(F)(F)F)CCC(F)(F)C(F)(F)C(F)(F)C(F)(F)C(F)(F)C(F)(F)C(F)(F)C(F)(F)C(F)(F)C(F)(F)F` (stereo not shown) [Example 27, CH3(CH2)3(CH2CH2CH(CH2CH2(CF2)9CF3))2(CH2)8OCOCH2CH(COOH)CH2COOH], the “Friction coefficient (40° C., 80% RH)” value in data set [1] is given as 0.23. Moreover, in data set [2], the “Shuttle durability (dB) (40° C., 20% RH)” value is −1.0 dB and the “Shuttle durability (dB) (−5° C.)” value was −0.5 dB. Further, the “High-temperature … (magnetic deterioration rate)” value in data set [4] (Tables 17 and 18) is “◯ (magnetic deterioration rate is 3% or less)”. In data set [3] (Tables 17 and 18), the “Corrosive gas environment” value was “⊙ (magnetic deterioration rate is 1% or less)”.

Consider `O=C(O)CCCC(=O)OCCC(F)(F)C(F)(F)C(F)(F)C(F)(F)C(F)(F)C(F)(F)C(F)(F)C(F)(F)F` [Comparative Example 6, CF3(CF2)7(CH2)2OCO(CH2)3COOH, reference compound], for which the “Friction coefficient (40° C., 80% RH)” value in data set [1] is reported as 0.55. Further, in data set [2], the “Shuttle durability (dB) (40° C., 20% RH)” value was −3.5 dB and the “Shuttle durability (dB) (−5° C.)” value was −3.5 dB. In addition, the “Corrosive gas environment” value in data set [3] (Tables 8 and 9) is recorded as “Δ (magnetic deterioration rate is 5% or less)”.

For the molecule `COC(=O)CCCCCCCCCCC(F)(F)C(F)(F)C(F)(F)C(F)(F)C(F)(F)C(F)(F)C(F)(F)C(F)(F)F` [Comparative Example 2, CF3(CF2)7(CH2)10COOCH3, reference compound], the “Friction coefficient (40° C., 80% RH)” value in data set [1] was determined as 0.50. Also, in data set [2], the “Shuttle durability (dB) (40° C., 20% RH)” value is given as −4.0 dB and the “Shuttle durability (dB) (−5° C.)” value is listed as −5.0 dB.

Take `CCCCCCCCCCCCCCCCCCC(CC(=O)OCC(F)(OC(F)(C(F)(F)F)C(F)(F)OC(F)(C(F)(F)F)C(F)(F)OC(F)(C(F)(F)F)C(F)(F)F)C(F)(F)F)C(=O)O` (stereo not shown) [Comparative Example 4, C18H37CH(COOH)CH2COOCH2CF(CF3)(OCF(CF3)CF2)3F, reference compound]: the “Friction coefficient (40° C., 80% RH)” value in data set [1] was 0.35. Also, in data set [2], the “Shuttle durability (dB) (40° C., 20% RH)” value is recorded as −4.0 dB and the “Shuttle durability (dB) (−5° C.)” value was −3.0 dB. In data set [3] (Tables 8 and 9), the “Corrosive gas environment” value is listed as “Δ (magnetic deterioration rate is 5% or less)”.

Turning to `CCCCCCCCCCCCCCCCCCC(CC(=O)OCCCCCCC(F)(F)C(F)(F)C(F)(F)C(F)(F)C(F)(F)C(F)(F)C(F)(F)C(F)(F)F)C(=O)OC(CC(=O)O)C(=O)O` (stereo not shown) [Example 33, CF3(CF2)7(CH2)6OCOCH2CH(C18H37)COOCH(COOH)CH2COOH], the “Friction coefficient (40° C., 80% RH)” value in data set [1] is 0.22. Moreover, in data set [2], the “Shuttle durability (dB) (40° C., 20% RH)” value is listed as −1.0 dB and the “Shuttle durability (dB) (−5° C.)” value is reported as −0.5 dB. In addition, in data set [4] (Tables 17 and 18), the “High-temperature … (magnetic deterioration rate)” value is reported as “⊙ (magnetic deterioration rate is 1% or less)”. The “Corrosive gas environment” value in data set [3] (Tables 17 and 18) was “⊙ (magnetic deterioration rate is 1% or less)”.

Take `O=C(O)CC(CC(=O)OCCC(F)(F)C(F)(F)C(F)(F)C(F)(F)C(F)(F)C(F)(F)C(F)(F)C(F)(F)F)C(=O)O` (stereo not shown) [Example 7, CF3(CF2)7(CH2)2OCOCH2CH(COOH)CH2COOH]: the “Friction coefficient (40° C., 80% RH)” value in data set [1] amounted to 0.25. Further, in data set [2], the “Shuttle durability (dB) (40° C., 20% RH)” value is recorded as −1.5 dB and the “Shuttle durability (dB) (−5° C.)” value is −1.3 dB. Moreover, in data set [4] (Tables 8 and 9), the “High-temperature … (magnetic deterioration rate)” value is given as “⊙ (magnetic deterioration rate is 1% or less)”. In addition, the “Corrosive gas environment” value in data set [3] (Tables 8 and 9) is given as “⊙ (magnetic deterioration rate is 1% or less)”.

Consider `CCCCCCC(CC=CCCCCCCCCOC(=O)CC(CC(=O)O)C(=O)O)C(F)(F)C(F)(F)C(F)(F)C(F)(F)C(F)(F)C(F)(F)C(F)(F)C(F)(F)F` (stereo not shown) [Example 26, CF3(CF2)7CH(C6H13)CH2CH═CH(CH2)8OCOCH2CH(COOH)CH2COOH], for which the “Friction coefficient (40° C., 80% RH)” value in data set [1] was found to be 0.25. Besides, in data set [2], the “Shuttle durability (dB) (40° C., 20% RH)” value was −1.0 dB and the “Shuttle durability (dB) (−5° C.)” value was −1.0 dB. For the same molecule, the “High-temperature … (magnetic deterioration rate)” value in data set [4] (Tables 17 and 18) is “◯ (magnetic deterioration rate is 3% or less)”. For the same molecule, the “Corrosive gas environment” value in data set [3] (Tables 17 and 18) is recorded as “⊙ (magnetic deterioration rate is 1% or less)”.

Turning to `O=C(O)CC(CC(=O)OCCCCCCCCCCCC(F)(F)C(F)(F)C(F)(F)C(F)(F)C(F)(F)C(F)(F)C(F)(F)C(F)(F)F)C(=O)O` (stereo not shown) [Example 9, CF3(CF2)7(CH2)11OCOCH2CH(COOH)CH2COOH], the “Friction coefficient (40° C., 80% RH)” value in data set [1] is recorded as 0.18. Moreover, in data set [2], the “Shuttle durability (dB) (40° C., 20% RH)” value is −0.8 dB and the “Shuttle durability (dB) (−5° C.)” value is recorded as −0.3 dB. The “High-temperature … (magnetic deterioration rate)” value in data set [4] (Tables 8 and 9) is given as “⊙ (magnetic deterioration rate is 1% or less)”. In addition, the “Corrosive gas environment” value in data set [3] (Tables 8 and 9) was “⊙ (magnetic deterioration rate is 1% or less)”.

With `O=C(O)CC(CC(=O)OCCCCCCCCCCCCCC(F)(F)C(F)(F)C(F)(F)C(F)(F)C(F)(F)C(F)(F)C(F)(F)C(F)(F)F)C(=O)O` (stereo not shown) [Example 24, CF3(CF2)7(CH2)13OCOCH2CH(COOH)CH2COOH], the “Friction coefficient (40° C., 80% RH)” value in data set [1] is on record as 0.20. Moreover, in data set [2], the “Shuttle durability (dB) (40° C., 20% RH)” value is given as −0.8 dB and the “Shuttle durability (dB) (−5° C.)” value is on record as −0.5 dB. Further, in data set [4] (Tables 17 and 18), the “High-temperature … (magnetic deterioration rate)” value is “⊙ (magnetic deterioration rate is 1% or less)”. Moreover, in data set [3] (Tables 17 and 18), the “Corrosive gas environment” value is listed as “⊙ (magnetic deterioration rate is 1% or less)”.

Regarding `O=C(O)CC(OC(=O)CCCCCCCCCCC(F)(F)C(F)(F)C(F)(F)C(F)(F)C(F)(F)C(F)(F)C(F)(F)C(F)(F)C(F)(F)C(F)(F)F)C(=O)O` (stereo not shown) [Example 15, CF3(CF2)9(CH2)10COOCH(COOH)CH2COOH], in data set [1], the “Friction coefficient (40° C., 80% RH)” value is recorded as 0.20. In addition, in data set [2], the “Shuttle durability (dB) (40° C., 20% RH)” value is listed as −1.0 dB and the “Shuttle durability (dB) (−5° C.)” value is recorded as −0.5 dB. Further, the “High-temperature … (magnetic deterioration rate)” value in data set [4] (Tables 8 and 9) is on record as “⊙ (magnetic deterioration rate is 1% or less)”. Moreover, in data set [3] (Tables 8 and 9), the “Corrosive gas environment” value is recorded as “⊙ (magnetic deterioration rate is 1% or less)”.

As to “C11H23COORfeOCOC11H23 [Comparative Example 5, reference compound]”, the “Friction coefficient (40° C., 80% RH)” value in data set [1] stood at 0.50. Moreover, in data set [2], the “Shuttle durability (dB) (40° C., 20% RH)” value is given as −3.0 dB and the “Shuttle durability (dB) (−5° C.)” value is given as −4.0 dB.

Regarding “C18H37CH(COOC12H25)(CH2)2COOCH2CF2(OCF2)p(OCF(CF3)CF2)qOCF3 [Comparative Example 3, reference compound]”, in data set [1], the “Friction coefficient (40° C., 80% RH)” value turned out to be 0.30. Besides, in data set [2], the “Shuttle durability (dB) (40° C., 20% RH)” value is given as −3.0 dB and the “Shuttle durability (dB) (−5° C.)” value is on record as −3.0 dB.
